Literature values as cited in article PMC5756113 (Peptides, 2017).

Details: cited from earlier work

## CN1CC[C@]23c4c5ccc(O)c4O[C@H]2[C@@H](O)C=C[C@H]3[C@H]1C5 [morphine]
  Brain uptake: less than 0.02 %Inj/g
